Experimental data as given in PubChem BioAssay AID493014 (National Center for Advancing Translational Sciences (NCATS), 2011).
Some of the results follow. Further columns of the screen follow, without active or inactive calls. Compounds called inactive in the main read-out are mostly missing here. The note in brackets gives the kind of curve behind each potency; many fits are weak. Peptide text beside a SMILES is read from it. * marks the point of attachment. Boc = CC(C)(C)OC(=O)*

Assay: qHTS Assay to Find Inhibitors of Chronic Active B-Cell Receptor Signaling
Conditions: ABC-DLBCL IkBa-CBG/CBR reporter, luminescence ratio (green luciferase fused to IkBa over red control in TMD8 lymphoma cells), 4 h
Procedure, shortened: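 Concentration-response series (up to 46 uM) were applied to TMD8 dual-reporter cells for 4 h at 37C with doxycycline. Green/red ratio, after filter-overlap correction, defined %Activity; red signal alone was normalised to basal cells and zero luminescence.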

[1] = measured here: CBR red luminescence, cell number

SMILES	AC50 [1]	AC50 (measured here: IkBa-CBG green luminescence)
CC1(C)COC(/C=C/c2ccc([N+](=O)[O-])cc2)=N1	16.4 µM [falling, partial curve]	–
COc1c(C)cc(C(=O)C2CCCN(Cc3cnc(N4CCOCC4)s3)C2)cc1C (stereo not drawn)	35.5 µM [falling, single point]	–
CCOC(=O)Cn1c(CN(Cc2ccccc2)Cc2ccccc2)nc2c1c(=O)n(C)c(=O)n2C	14.1 µM [falling, single point]	–
Cc1nc(Br)c(Br)c(C)c1Br	1.41 µM [falling, partial curve, poor fit]	–
Cc1ccc(C(=O)NNC(=O)c2cccs2)cc1	17.8 µM [falling, single point]	–
CCOC(=O)NCc1ccc2c(c1)cc(C)n2C	4.47 µM [rising, full curve, poor fit]	–
CC(=O)Nc1ccc(NC(=O)C(C)Oc2ccccc2C(=O)NCc2ccccc2)cc1 (stereo not drawn)	13 µM [rising, partial curve, poor fit]	–
O=C(Nc1ccc2c(c1)OCO2)c1ccc(Cl)s1	23.1 µM [falling, single point]	–
C[C@]12CC[C@H]3C(=CCc4cc(O)ccc43)[C@@H]1CCC2=O	13 µM [rising, partial curve, poor fit]	20.6 µM [falling, partial curve, poor fit]
O=C(COC(=O)c1ccc(S(=O)(=O)C(F)F)cc1)Nc1ccccc1C(=O)NC1CC1	2.91 µM [rising, full curve, poor fit]	–
Cc1noc(C)c1COc1ccc(C(=O)O)cc1	31.6 µM [rising, single point]	–
COc1cc(CC(=O)O)c([N+](=O)[O-])cc1OC	7.08 µM [rising, partial curve, poor fit]	–
O=C(Nc1ccncc1)c1ccc2ncsc2c1	4.11 µM [falling, partial curve]	–
COc1ccccc1N1CCN(S(=O)(=O)c2ccc(Cl)cc2)CC1	35.5 µM [falling, single point]	–
CCCCCNC(=O)CSC1=N/C(=C\c2ccc(Cl)c(Cl)c2)C(=O)N1CC	32.6 µM [falling, partial curve, poor fit]	–
Cc1c(Cl)cccc1NC(=S)NCC1COc2ccccc2O1 (stereo not drawn)	12.6 µM [falling, single point]	–
O=C(CNC(=O)c1ccc2c(c1)S(=O)(=O)N=C1CCCCCN12)Nc1ccc(F)c(F)c1	0.259 µM [rising, full curve, poor fit]	–
O=C(O)c1ccc(N/N=C/c2ccc(-c3ccc(Br)cc3)o2)cc1	0.0891 µM [falling, full curve]	–
O=C(COC(=O)C1CCN(/C=C/C(=O)C(F)(F)F)CC1)Nc1ccccc1	25.9 µM [rising, single point]	–
COc1ccc(S(=O)(=O)N2CCCC(C(=O)NCC3CCCO3)C2)cc1Cl (stereo not drawn)	10 µM [falling, partial curve, poor fit]	–
COc1ccccc1-n1cn[nH]c1=S	8.91 µM [falling, partial curve]	–

SMILES	AC50 [1]	AC50 (measured here: IkBa-CBG green luminescence)
CN(C)N=Nc1nc2c(c(=O)n(C)c(=O)n2C)n1CC1CO1 (stereo not drawn)	14.1 µM [rising, single point]	–
O=c1c(Cl)c(Cl)cnn1Cc1ccccc1Cl	18.4 µM [falling, partial curve, poor fit]	–
COc1cc([N+](=O)[O-])ccc1NC(=O)Nc1cccnc1	0.501 µM [rising, full curve, poor fit]	–
CCCCCCC(=O)N(O)C1CC(=O)N(c2ccc(Br)cc2)C1=O (stereo not drawn)	5.8 µM [falling, full curve, poor fit]	–
COC(=O)c1c(-c2ccccc2)noc1C	35.5 µM [rising, single point]	–
COc1ccc(NC(=O)Nc2ccccc2)cc1S(=O)(=O)N1CCCCC1	35.5 µM [falling, partial curve, poor fit]	–
CC(C)CC(NC(=O)OC(C)(C)C)C(=O)NC(C(=O)N1CCCC1C(N)=O)C(C)C (stereo not drawn) (Boc-Leu-Val-Pro-NH2; configuration not given here)	2.31 µM [rising, single point]	–
N/C(=N\OC(=O)c1ccc(Cl)cc1)c1nonc1N	1.16 µM [rising, partial curve]	–
Cc1sc(NC(=O)C2CCCCC2C(=O)O)c(C(N)=O)c1-c1ccc(C(C)C)cc1 (stereo not drawn)	2.24 µM [falling, full curve, poor fit]	–
COc1cc(/C=N/NC(=O)c2ccc(N)cc2)ccc1OC(=O)c1cccc(C)c1	12.6 µM [falling, partial curve, poor fit]	–
COc1ccc(OC)c(CNC(=O)CCCc2cn(C)c3ccccc23)c1	4.11 µM [falling, partial curve, poor fit]	–
Cc1cc(C)c2c(-n3cccc3)nn(CC#N)c2n1	1.12 µM [rising, full curve, poor fit]	–
Cc1ccc(N/N=C(\C#N)C(=O)c2ccsc2)cc1	14.1 µM [falling, single point]	–
O=C(/C=C/Nc1ccc(F)c(F)c1)c1cccs1	16.4 µM [falling, partial curve]	–
COc1ccc(C(=O)CSc2nnc(CN3CCCCC3)n2-c2ccc(F)cc2)cc1OC	29.1 µM [falling, single point]	–
Cc1csc(C(C#N)C(=O)c2ccncc2)n1 (stereo not drawn)	25.1 µM [falling, single point]	–
N#CC1=C(N)Oc2cc(Nc3ccccc3)ccc2C1c1ccncc1 (stereo not drawn)	14.1 µM [falling, single point]	–
Nc1ncnc2nc(SCCN3CCCCC3)[nH]c12	6.51 µM [rising, single point]	–
Cc1cc(C(=O)Nc2ccccc2)oc1C	22.4 µM [falling, single point]	–
COc1ccc(/C=C(\C#N)c2cc(OC)c(OC)cc2[N+](=O)[O-])cc1	5.62 µM [falling, single point]	–
N#CCCCSc1ncccc1-c1nc2ccccc2[nH]1	0.794 µM [falling, full curve]	–

Ordered by molar mass (ascending): some entries from above.
SMILES	AC50 [1]	AC50 (measured here: IkBa-CBG green luminescence)
Cc1csc(C(C#N)C(=O)c2ccncc2)n1 (stereo not drawn)	25.1 µM [falling, single point]	–
N#CC1=C(N)Oc2cc(Nc3ccccc3)ccc2C1c1ccncc1 (stereo not drawn)	14.1 µM [falling, single point]	–
COc1ccc(S(=O)(=O)N2CCCC(C(=O)NCC3CCCO3)C2)cc1Cl (stereo not drawn)	10 µM [falling, partial curve, poor fit]	–
